# According to PubChem BioAssay AID504444 (National Center for Advancing Translational Sciences (NCATS), 2011):
# Among all 360,000 compounds or so, about 7,500 (2.1%) were called active. Inconclusive means that the source gave no clear call. Such entries were picked first, then a sample of the others. Calls follow the shape of the dose curve; as a rule, active = well fitted inhibition curve with a large enough effect; inconclusive = small, poorly fitted or top-dose-only effect, or effect the other way; inactive = flat fitted curve, though single readings scatter. A potency beside an inconclusive call is a rough fit, not a confirmed value.
# Test: Nrf2 qHTS screen for inhibitors; also: nearly all actives have a fitted effect of over 60% in size
# Details: A549 ARE-Fluc reporter, luciferase luminescence, 18-24 h; activity change, negative = inhibition: at 46 µM (top of the series)
# Outline: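 Reporter: ARE-Fluc in A549. Exposure: 18-24 h, 37 °C, 5% CO2, 5% FBS OPTI-MEM. Readouts: fluorescent cytotoxicity (CellTiter-Fluor), then luminescent Nrf2 signal after BugLite.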
# % is scaled to controls: 0 for no effect and ±100 for the full control effect; potency is read from the fitted curve at half-maximal effect.
Structure (SMILES),Potency,"activity change, negative = inhibition"
CC(C)(C)c1cc(/C=C2\NC(=O)NC2=O)cc(C(C)(C)C)c1O,"inconclusive: 16.4 µM [falling, single point]",–
COc1ccc(C=NNc2nc3ccccc3s2)cc1,"inconclusive: 29.1 µM [activator, single point]",–
O=C(c1ccco1)N1CCN(c2ccnc3cc(Cl)ccc23)CC1,"inconclusive: 11.6 µM [falling, partial curve, poor fit]",–
Cc1cccc(C)c1OCc1cc(C(=O)N(C)Cc2cc(C3CC3)n[nH]2)no1,"inconclusive: 29.1 µM [falling, single point]",–
COc1ccccc1NC(=O)C(=O)N1CCCC1,"inconclusive: 7.31 µM [activator, partial curve]",–
c1ccc(-c2noc(C34CC5CC(CC(C5)C3)C4)n2)nc1,"inconclusive: 6.51 µM [activator, full curve]",–
CCc1ccc(NC(=O)C2CCCN(S(=O)(=O)c3cnc[nH]3)C2)cc1 (centres undefined),"inconclusive: 16.4 µM [activator, partial curve]",–
COCc1ccc(C(=O)N2CCCC(C(=O)c3ccc(Cl)cc3C)C2)o1 (centres undefined),"inconclusive: 29.1 µM [falling, single point]",–
CC(=O)Nc1ccc(S(=O)(=O)NC2(C(F)(F)F)C(=O)Nc3c2c(=O)[nH]c(=O)n3-c2ccc(C)c(C)c2)cc1 (centres undefined),inactive,–
COc1ccc(S(=O)(=O)N2CCN(Cc3cc(OC)c(O)c(OC)c3)CC2)cc1,inactive,–
Fc1ccc(-c2csc(-c3ccccn3)n2)cc1F,"inconclusive: 5.17 µM [activator, partial curve, poor fit]",–
COc1cccc(-n2c(-c3ccco3)nc3c(cnn3-c3ccc(C)cc3)c2=O)c1,"inconclusive: 23.1 µM [falling, single point]",–
CCN1c2ccccc2-c2nc(SCC(=O)Nc3c(C)cc(C)cc3C)ncc2S1(=O)=O,inactive,–
CCOc1ccc(NS(=O)(=O)c2ccc3[nH]cc(C(=O)NC4CCCC4)c(=O)c3c2)cc1,"inconclusive: 29.1 µM [falling, single point]",–
Cc1cc(C)c(S(=O)(=O)N2CCOC2CNC(=O)C(=O)NCCCn2ccnc2)c(C)c1 (centres undefined),"inconclusive: 23.1 µM [falling, partial curve, poor fit]",–
CCc1nnc(NC(=O)c2cc3c(s2)CCCCC3)s1,"inconclusive: 1.3 µM [activator, partial curve]",–
COc1ccc(S(=O)(=O)N2CCOC23CCN(S(=O)(=O)c2ccc([N+](=O)[O-])cc2)CC3)cc1,"inconclusive: 7.31 µM [falling, partial curve, poor fit]",–
C=CCn1cc(/C=N\NC(=O)c2cc3c(ccc4ccccc43)o2)c2ccccc21,"inconclusive: 4.11 µM [falling, partial curve, poor fit]",–
Cc1nnc(SCC(=O)Nc2ccc(N3CCOCC3)cc2)o1,"inconclusive: 16.4 µM [falling, partial curve, poor fit]",–
COc1ccc(-c2nc3ccc(C)cn3c2NCc2ccccc2)cc1SC1CCCCC1,"inconclusive: 29.1 µM [falling, single point]",–
O=C(/C=C/c1ccccc1[N+](=O)[O-])N1CCN(c2ccc(F)cc2)CC1,inactive,–
Cc1ccc(-n2nc3c(=O)n(CC(=O)NCCc4ccco4)nc(C)c3c2C)cc1,inactive,–

Structure (SMILES),Potency,"activity change, negative = inhibition"
COc1ccc(C(=O)Nc2ccc(C3=NNC(=O)CC3C)cc2NC(=O)c2ccc(OC)cc2)cc1 (centres undefined),inactive,–
COc1ccc(-c2ccc(SCC(=O)NC3CCCC3)nn2)cc1OC,inactive,–
NC(=NCc1ccccc1)NC(=O)c1nc(Cl)c(N)nc1N,"inconclusive: 32.6 µM [falling, partial curve, poor fit]",–
O=C(COc1ccccc1Cl)Nc1ccc(CN2CCOCC2)cc1,active: 23.1 µM,–
CO/N=C(/CS(=O)Cc1ccc(Cl)cc1)c1ccc(Cl)cc1 (centres undefined),"inconclusive: 18.4 µM [falling, partial curve, poor fit]",–
COc1ccc(S(=O)(=O)N2CCc3ccccc32)cc1C(=O)N1CCN(C=O)CC1,"inconclusive: 7.31 µM [falling, partial curve, poor fit]",–
Cn1c(=O)[nH]c(=O)c2c1nc(N1CCCCCC1)n2CCCSc1nc2ccccc2o1,"inconclusive: 18.4 µM [falling, single point]",–
O=C(Nc1nc2c(ccc3ccccc32)s1)c1ccco1,"inconclusive: 29.1 µM [falling, single point]",–
O=C(NC1CCCCC1)N(CCN1CCOCC1)Cc1cc2cc3c(cc2[nH]c1=O)OCCO3,inactive,–
Clc1ccc(-c2nnc(Sc3nc4ccccc4o3)c3ccccc23)cc1,active: 18.4 µM,–
O=C(CCS(=O)(=O)c1nc(-c2ccc3c(c2)OCO3)cc(C(F)(F)F)n1)Nc1ccc(F)c(Cl)c1,–,inactive: -1.37% [at 9.27 µM]
Cc1cccc(C)c1N(CC(O)Cn1c2ccccc2c2ccccc21)S(C)(=O)=O (centres undefined),"inconclusive: 18.4 µM [falling, single point]",–
CCC(=O)NC(=S)Nc1ccc(S(=O)(=O)NC2CCCCC2)cc1,"inconclusive: 16.4 µM [falling, single point]",–
Cc1cc(C)cc(NC(=O)CN2CCc3cc4c(cc3C2C)OCCCO4)c1 (centres undefined),active: 25.9 µM,–
CCCCNC(=S)N(CCCN(C)C)Cc1cc2cc3c(cc2[nH]c1=O)OCO3,inactive,–
Cc1cc(Cl)c2oc(C(=O)N3CCN(c4ccncc4)CC3)c(C)c2c1,"inconclusive: 20.6 µM [falling, single point]",–
Cc1cc(C)nc(SC(C)C(=O)N/N=C/c2cccs2)n1 (centres undefined),"inconclusive: 29.1 µM [falling, single point]",–
CCc1nc(N=Nc2c(O)[nH]c3ccccc23)c2c3c(sc2n1)CCC3,"inconclusive: 29.1 µM [activator, single point]",–
Cc1ccc(N(Cc2cc(=O)[nH]c3ccccc23)C(=O)CCl)c(C)c1,"inconclusive: 29.1 µM [falling, single point]",–
O=C(c1cc2c(s1)CCCC2)N1CCN(CCO)CC1,"inconclusive: 6.51 µM [falling, partial curve, poor fit]",–
CC1CCCN(C(=O)c2ccc(OC3CCN(CCc4ccccc4)CC3)cc2)C1 (centres undefined),active: 16.4 µM,–
COc1ccc(-c2cc([C@H]3[C@H]4C=CC[C@@H](C)[C@@H]4C(=O)N3Cc3ccccc3)ccc2F)cc1,"inconclusive: 20.6 µM [falling, single point]",–

Structure (SMILES),Potency,"activity change, negative = inhibition"
COc1ccc(C2/C=C\CN(C(=O)C3CC3)C(C)C(=O)N2Cc2ccc(F)cc2)cc1 (centres undefined),inactive,–
Cc1ccc(NC(=O)COc2coc(CN3CCN(Cc4ccccc4)CC3)cc2=O)cc1,"inconclusive: 8.2 µM [falling, partial curve]",–
COc1ccccc1C(CNC(=O)c1ccc(C)c(S(=O)(=O)N2CCCCC2)c1)N1CCCC1 (centres undefined),inactive,–
Cc1ccc(S(=O)(=O)N2CCC(=O)N(C(COCc3cccc(C)c3)Cc3ccccc3)CC2)cc1 (centres undefined),"inconclusive: 29.1 µM [falling, single point]",–
O=C1CN=C(Nc2ccccc2Cl)N1Cc1ccc2c(c1)OCO2,"inconclusive: 0.0651 µM [falling, full curve, poor fit]",–
O=C(COC(=O)CCC(NC(=O)OCc1ccccc1)C(=O)OCC(=O)Nc1ccccc1)Nc1ccccc1 (centres undefined),"inconclusive: 2.06 µM [activator, partial curve, poor fit]",–
O=C1CN=C(Nc2cccc(C(F)(F)F)c2)N1C1CCCC1,active: 14.6 µM,–
CCN1CCC(=NNC(=O)c2ccco2)CC1,"inconclusive: 23.1 µM [activator, partial curve]",–
CN(C)c1cc(Cl)c2nonc2c1N,inactive,–
CCCn1c2ccccc2c2cnn(CC(=O)NCCc3ccc(OCC)c(OCC)c3)c(=O)c21,"inconclusive: 4.61 µM [falling, partial curve, poor fit]",–
COc1cccc(C2CC(=O)Nc3c2c(=O)nc2c(C)cccn32)c1 (centres undefined),"inconclusive: 4.61 µM [activator, full curve, poor fit]",–
CC1=C(C)CC(C(=O)Nc2ccc(C(N)=O)cc2)C(C(=O)O)C1 (centres undefined),"inconclusive: 0.231 µM [falling, full curve, poor fit]",–
Cc1cccn2c(=O)c3cc(C(=O)NCCc4ccccc4)c(=N)n(CC4CCCO4)c3nc12 (centres undefined),"inconclusive: 25.9 µM [activator, partial curve, poor fit]",–
COc1cc(NC(=O)c2nn(C)c3c2CS(=O)(=O)c2ccccc2-3)cc(OC)c1,"inconclusive: 11.6 µM [falling, partial curve]",–
O=C(Nc1ccc2nc3n(c(=O)c2c1)CCCCC3)C(=O)Nc1ccccc1F,"inconclusive: 2.06 µM [activator, single point]",–
O=S(=O)(Nc1cccc(-c2ccc3nncn3n2)c1)c1ccc(Cl)s1,"inconclusive: 16.4 µM [falling, partial curve]",–
Cc1cccc(Nc2nn3c(=O)c4cc5c(cc4nc3s2)OCO5)c1,"inconclusive: 32.6 µM [falling, single point]",–
COc1cc(OC)cc(-c2c(C#Cc3ccsc3)c3cc(-c4ccc(C(N)=O)cc4)ccc3n2C)c1,"inconclusive: 14.6 µM [falling, single point]",–
COc1cc(OC)cc(OCC(O)Cn2cnc(-c3ccccc3)c2)c1 (centres undefined),"inconclusive: 0.0146 µM [falling, full curve, poor fit]",–
Cc1ccc(C(=O)Nc2ccc3ncccc3c2)cc1,"inconclusive: 0.291 µM [activator, full curve]",–

# Single records, as listed above:
# Cc1ccc(C(=O)Nc2ccc3ncccc3c2)cc1 is listed as Potency: inconclusive: 0.291 µM [activator, full curve]
# CCc1nnc(NC(=O)c2cc3c(s2)CCCCC3)s1 is listed as Potency: inconclusive: 1.3 µM [activator, partial curve]
# CO/N=C(/CS(=O)Cc1ccc(Cl)cc1)c1ccc(Cl)cc1 (centres undefined) is listed as Potency: inconclusive: 18.4 µM [falling, partial curve, poor fit]
# O=C(c1cc2c(s1)CCCC2)N1CCN(CCO)CC1 is listed as Potency: inconclusive: 6.51 µM [falling, partial curve, poor fit]
